{"source": "PubChem BioAssay AID540276", "about": "(National Center for Advancing Translational Sciences (NCATS), 2011)", "note": "The whole screen tested about 300,000 compounds, of which about 5,400 (1.8%) were called active. The inconclusive results got no clear call from the source; some entries with a clear call stand among them for comparison. Calls come from the whole dose curve; tested in HEK293 cells. Where the call is inconclusive, the potency comes from a doubtful curve fit. Potency is the fitted concentration of half-maximal effect.", "data": [{"assay": "qHTS for inhibitors of binding or entry into cells for Marburg Virus", "settings": "Marburg virus pseudotyped entry inhibition, cell reporter; series mostly up to 37.8 µM", "values": [{"smiles": "Cc1cccc(C(C)C)c1NC(=O)C1CCN(S(=O)(=O)c2ccccc2)CC1", "Potency": "inconclusive: 25.1 µM [inhibitor, single point]"}, {"smiles": "O=C(CN1CCN(c2ccccc2F)CC1)c1c[nH]c2ccc(F)cc12", "Potency": "active: 11.6 µM"}, {"smiles": "CCCCn1c(SCC(=O)c2ccc3c(c2)OCCO3)nnc1-c1ccoc1C", "Potency": "active: 11.2 µM"}, {"smiles": "CCCC(=O)N1CCc2cc(OC)c(OC)cc2C1COc1ccc2c(C)cc(=O)oc2c1", "note": "(centres undefined)", "Potency": "inactive"}, {"smiles": "CC(C)(C)S(=O)(=O)c1ccc2nc3c(n2c1)CCCC3", "Potency": "inactive"}, {"smiles": "CN(c1ccc(C(=O)O)cc1)S(=O)(=O)c1ccccc1", "Potency": "inactive"}, {"smiles": "COc1ccc(NC(=S)Nc2ccc(S(=O)(=O)N3CCOCC3)cc2)c(OC)c1", "Potency": "inconclusive: 6.31 µM [inhibitor, single point]"}, {"smiles": "COc1ccc(NC(=O)CSc2nc(-c3ccncc3)nn2CC(=O)N2CCCC2)cc1", "Potency": "inconclusive: 0.058 µM [activator, full curve]"}, {"smiles": "CCCCn1c(O)c(/C=C2\\C=Nc3ccccc32)c(=O)[nH]c1=O", "Potency": "inconclusive: 11.2 µM [activator, partial curve, poor fit]"}, {"smiles": "COc1ccc2c(c1)C(C)=CC(C)(C)N2S(=O)(=O)c1ccc(Br)cc1", "Potency": "inconclusive: 1.12 µM [inhibitor, full curve, poor fit]"}, {"smiles": "COc1ccc(NC(=O)c2cnc(Nc3ccc(C)c(Cl)c3)c3ccccc23)c(OC)c1", "Potency": "inconclusive: 35.5 µM [activator, single point]"}, {"smiles": "O=C1NC(=S)S/C1=C\\C=C\\c1ccc([N+](=O)[O-])o1", "Potency": "inconclusive: 7.94 µM [inhibitor, partial curve, poor fit]"}, {"smiles": "Nc1nc(/C=C/c2cccnc2)nc(-c2ccccc2O)n1", "Potency": "inconclusive: 3.55 µM [inhibitor, full curve, poor fit]"}, {"smiles": "COC(=O)c1ccc(NC(=O)CN(Cc2ccccc2)S(=O)(=O)c2ccc(C)cc2)cc1", "Potency": "inconclusive: 35.5 µM [inhibitor, single point]"}, {"smiles": "Cc1sc2ncnc(N3CCN(c4ncccn4)CC3)c2c1C", "Potency": "inconclusive: 14.1 µM [inhibitor, partial curve, poor fit]"}, {"smiles": "CCCC1(CC(C)C)C(=O)NC(=S)NC1=O", "Potency": "inconclusive: 12.6 µM [activator, single point]"}, {"smiles": "CNS(=O)(=O)c1ccc(N=Cc2c(O)n(-c3ccccc3)c(=O)[nH]c2=O)cc1", "Potency": "inconclusive: 6.31 µM [activator, partial curve, poor fit]"}, {"smiles": "Cc1cc(C(=O)N/N=C/c2ccc(O)c(O)c2O)c(C)n1-c1ccccc1", "Potency": "inconclusive: 6.31 µM [inhibitor, single point]"}, {"smiles": "O=C(CSc1ncc(-c2ccccc2)n1CC1CCCO1)N1CCCCC1", "note": "(centres undefined)", "Potency": "inconclusive: 29.1 µM [inhibitor, single point]"}, {"smiles": "COc1ccc(-c2ccn(-c3cccc(F)n3)n2)cc1", "Potency": "active: 10 µM"}, {"smiles": "Cc1ccc2c(C)ccc(O)c2n1", "Potency": "inconclusive: 1.41 µM [inhibitor, full curve, poor fit]"}, {"smiles": "COc1ccc(COC(=O)c2ccc(C)c(S(=O)(=O)N3CCOCC3)c2)cc1F", "Potency": "inactive"}, {"smiles": "O=C1S/C(=C/c2ccccc2)C(=O)N1CC(O)Cn1c2ccccc2c2ccccc21", "note": "(centres undefined)", "Potency": "inconclusive: 22.4 µM [inhibitor, single point]"}, {"smiles": "COc1ccc(N2CCN(C(=O)C3CCN(Cc4nc(-c5ccc(Cl)cc5)oc4C)CC3)CC2)cc1", "Potency": "inconclusive: 35.5 µM [activator, single point]"}, {"smiles": "CCCN(CCC)CCCNC(=O)c1cn(CCOC)c(=O)c2c1c1ccccc1n2C", "Potency": "inconclusive: 0.13 µM [inhibitor, single point]"}, {"smiles": "Clc1ccc(NC2(c3nnnn3C3CCCCC3)CCCCC2)cc1", "Potency": "inconclusive: 7.3 µM [inhibitor, partial curve]"}, {"smiles": "OC(COCC(F)(F)C(F)(F)C(F)(F)C(F)F)Cn1c2ccc(Cl)cc2c2cc(Cl)ccc21", "note": "(centres undefined)", "Potency": "inconclusive: 35.5 µM [inhibitor, single point]"}, {"smiles": "CC(=O)c1c(C)[nH]c(C2=NNC(=NC(C)(C)C)SC2)c1C", "Potency": "inactive"}, {"smiles": "O=C(Nc1ccccc1N1CCCCC1)c1ccc(-c2cccc(Cl)c2)o1", "Potency": "inconclusive: 0.092 µM [activator, single point]"}, {"smiles": "Cc1ccc(OCC(=O)N/N=C2/SCC(=O)N2Cc2ccccc2)cc1", "Potency": "inconclusive: 0.501 µM [activator, full curve, poor fit]"}, {"smiles": "O=C(Nc1ccc(Cl)cn1)Nc1ccccc1Cl", "Potency": "inconclusive: 5.62 µM [activator, single point]"}, {"smiles": "Cc1cccc(C)c1NC(=O)C1CCN(S(C)(=O)=O)CC1", "Potency": "inactive"}, {"smiles": "O=C(Nc1ccccc1)N1CCCC(c2nc(-c3ccc(F)cc3)no2)C1", "note": "(centres undefined)", "Potency": "inactive"}, {"smiles": "O=C(N/N=C/c1ccc[nH]1)c1ccc(COc2cccc3cccnc23)cc1", "Potency": "inconclusive: 2 µM [inhibitor, partial curve, poor fit]"}, {"smiles": "Cc1c(CC(=O)NCCC(C)C)c(=O)oc2cc3c(cc12)CCC(C)(C)O3", "Potency": "inactive"}, {"smiles": "COCCn1c(-c2ccccc2)csc1=Nc1cccnc1", "Potency": "inconclusive: 35.5 µM [inhibitor, single point]"}, {"smiles": "COc1ccc(Cc2nc3ccc(C(=O)N(C)CCO)cc3o2)cc1", "Potency": "inactive"}, {"smiles": "Cc1cccc(NC(=O)C(NS(=O)(=O)c2ccc3c(c2)CCC(=O)N3)c2ccccc2)n1", "note": "(centres undefined)", "Potency": "inactive"}, {"smiles": "CN1/C(=C\\C(=S)NC(=O)c2cccc(Br)c2)C(C)(C)c2ccccc21", "Potency": "inconclusive: 35.5 µM [inhibitor, single point]"}, {"smiles": "O=C(COc1ccc(F)cc1)Nc1nnc(C2CC2)s1", "Potency": "inconclusive: 7.94 µM [activator, partial curve, poor fit]"}, {"smiles": "O=C(Nc1c(-c2ccccc2)nc2ccccn12)c1ccccc1", "Potency": "inactive"}, {"smiles": "Cc1ccc(-n2nc(CO)c(C(=O)NCc3ccccn3)n2)cc1", "Potency": "inactive"}, {"smiles": "Cc1ccc(CNC(=O)C2CCC(=O)N2C2CCCCC2)cc1", "note": "(centres undefined)", "Potency": "inconclusive: 2.31 µM [activator, partial curve]"}, {"smiles": "COc1ccc(NC(=S)NNc2ccc(C(=O)O)cc2)cc1", "Potency": "inconclusive: 17.8 µM [activator, single point]"}]}]}
